# From US20050176940
# No signal at the amounts used counts as a negative. Construct, isoform or probe ends are uncertain for at least one entry. The comparison behind a weaker result is the experiment's own reference, which may not be listed here.
# Tested on: alpha-thrombin (Bos taurus)
# Test: inhibition of the protein
# Conditions: purified native protein, protein details: Armour Pharmaceutical Co., 5000 U, folded or branched DNA
sequence,measurement,setting,value
ACTGGTTGGTGAGGTTGGGTGCGAAGC [TC1 (linear)],functional effect of the aptamer,"5'-phosphate, dose not given here",less active
CTGGGTTGGTGAGGTTGGTCAGCACGGTTGGTGAGGTTGGTGTG [DH6-1 (unligated)],functional effect of the aptamer,"5'-phosphate, clotting time, 100 nM DNA, selection buffer 37 C, baseline 41 s, described as no inhibition, counted as no effect",54 s
CTGGGTTGGTGAGGTTGGTCAGCACGGTTGGTGAGGTTGGTGTG [cDH6-1],functional effect of the aptamer,"circular (5'-3' ligated), clotting time, 100 nM DNA, selection buffer 37 C, baseline 41 s, similar to negative controls, variant of DH6-1 (unligated), counted as no effect",49 s
GCTGTGGTTGGTGAGGTTGGCAGCAGCCAAGGTAACCAGTACAAGGTGCTAAACGTAATGGCTTCGGCT [TS1-1 (unligated)],functional effect of the aptamer,"5'-phosphate, clotting time, 100 nM DNA, selection buffer 37 C, baseline 41 s, serum (50 nM) 44 s, similar to negative controls, counted as no effect",53 s
GCTGTGGTTGGTGAGGTTGGCAGCAGCCATTCACCATGGCCCCTTCCTACGTATGTTCTGCGGGTGGCT [TS3-1 (unligated)],functional effect of the aptamer,"5'-phosphate, clotting inhibition similar to negative controls, dose not given here",not active
